Data as given in PubChem BioAssay AID1259278 (Sanger Institute, 2017)

Aim: 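Follow-up of kinome siRNA hits that combine with three anchor drugs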 (follow-up of hits)
Cells: human HT55 colorectal cancer cells
Reagent: single siRNA against human genes
Treatment: anchor drugs added to knock-down cells: cetuximab 5 µg/ml, trametinib 10 nM or BYL719 1 µM, against DMSO vehicle; chosen to hurt viability little alone
Detection: 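Viability averaged against the control control pool 2 (non-targeting), plus a synergy score of knock-down with drug for each anchor drug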
Reading the numbers: synergy score with BYL719 and synergy score with cetuximab and synergy score with trametinib: higher = stronger combined killing with knock-down
Active means: 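a synergy score over 0.10 with BYL719, cetuximab or trametinib makes the knock-down a hit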
Calls: active = synergy with an anchor drug; inactive = no synergy
In all, the deposit lists 160 reagents; this is an unselected part. Of all reagents, 54 (34%) are marked active. 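Each call rests on one siRNA duplex in one cell line; gene-level support needs several duplexes and lines.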 Not all columns of the deposit are shown. No sequences are given here. Not given: the amount of reagent, the time to read-out.

Gene	PubChem SID	synergy score with BYL719	synergy score with cetuximab	synergy score with trametinib	Call
BMPR2 (GeneID 659)	SID56477247	-0.176	-0.0646	-0.0344	inactive
BMPR2 (GeneID 659)	SID56477249	-0.0795	0.00634	-0.0433	inactive
BMPR2 (GeneID 659)	SID56477250	-0.139	0.00136	-0.0923	inactive
BMPR2 (GeneID 659)	SID135611748	-0.146	-0.0579	-0.255	inactive
SYK (GeneID 6850)	SID56475471	-0.131	0.0198	0.0723	inactive
SYK (GeneID 6850)	SID56475472	-0.256	0.0486	-0.0386	inactive
SYK (GeneID 6850)	SID56475473	-0.192	-0.0673	0.0915	inactive
SYK (GeneID 6850)	SID56475474	-0.331	-0.1	-0.154	inactive

A stretch of the results above:
Gene	PubChem SID	synergy score with BYL719	synergy score with cetuximab	synergy score with trametinib	Call
SYK (GeneID 6850)	SID56475471	-0.131	0.0198	0.0723	inactive
SYK (GeneID 6850)	SID56475472	-0.256	0.0486	-0.0386	inactive
SYK (GeneID 6850)	SID56475473	-0.192	-0.0673	0.0915	inactive
SYK (GeneID 6850)	SID56475474	-0.331	-0.1	-0.154	inactive

Further records:
Gene	PubChem SID	synergy score with BYL719	synergy score with cetuximab	synergy score with trametinib	Call
KCNH8 (GeneID 131096)	SID134236349	-0.0311	0.0435	0.035	inactive
KCNH8 (GeneID 131096)	SID134236350	0.0877	0.182	0.135	active
KCNH8 (GeneID 131096)	SID134236351	0.045	0.0192	0.187	active
KCNH8 (GeneID 131096)	SID134236352	-0.0131	0	0.0498	inactive
AK2 (GeneID 204)	SID56477903	-0.206	0	-0.0384	inactive
AK2 (GeneID 204)	SID56477904	-0.231	-0.177	-0.0106	inactive
AK2 (GeneID 204)	SID56477905	0.0936	0.0457	-0.0486	inactive
AK2 (GeneID 204)	SID56477906	-0.301	-0.211	0.0865	inactive
MAPKAPK2 (GeneID 9261)	SID56475927	-0.00468	-0.0012	-0.0829	inactive
MAPKAPK2 (GeneID 9261)	SID56475928	-0.23	-0.169	-0.242	inactive
MAPKAPK2 (GeneID 9261)	SID56475929	0.0191	0.0862	-0.0108	inactive
MAPKAPK2 (GeneID 9261)	SID56475930	0.0772	0.108	-0.00201	active
PFKFB3 (GeneID 5209)	SID56477763	-0.0479	0.0735	-0.0947	inactive
PFKFB3 (GeneID 5209)	SID56477764	-0.00962	0.0141	-0.0104	inactive
PFKFB3 (GeneID 5209)	SID56477765	-0.251	0.0314	-0.144	inactive
PFKFB3 (GeneID 5209)	SID135612150	-0.0657	0.00886	-0.0812	inactive
